These are yes or no findings as the source states them, for the method shown.
Target: MRE11 deletion construct, N-terminal region (Arabidopsis thaliana)
Assay: two-hybrid; direct test after plasmid isolation and re-transformation into the yeast reporter strain AH109; MRE11 full length and deletion constructs against the TAF1 C-terminal region

binding: no binding
B1: TAF1 C-terminal region isolated in the yeast two-hybrid screen (domain or fragment, UniProt Q8LRK9 1278-1919)
chain: LCRLLMQDEDQKKKKKKMKGVGEGMGSYPPPRPNIALQSGEPVRKANAMDKKPIAIQPDASFLVNESTIKDNRNVDSIIKTPKGKQVKENSNSLGQLKKVKILNENLKVFKEKKSARENFVCGACGQHGHMRTNKHCPRYRENTESQPEGIDMDKSAGKPSSSEPSGLPKLKPIKNSKAAPKSAMKTSVDEALKGDKLSSKTGGLPLKFRYGIPAGDLSDKPVSEAPGSSEQAVVSDIDTGIKSTSKISKLKISSKAKPKESKGESERRSHSLMPTFSRERGESESHKPSVSGQPLSSTERNQAASSRHTISIPRPSLSMDTDQAESRRPHLVIRPPTEREQPQKKLVIKRSKEMNDHDMSSLEESPRFESRKTKRMAELAGFQRQQSFRLSENSLERRPKEDRVWWEEEEISTGRHREVRARRDYDDMSVSEEPNEIAEIRRYEEVIRSEREEEERQKAKKKKKKKKLQPEIVEGYLEDYPPRKNDRRLSERGRNVRSRYVSDFERDGAEYAPQPKRRKKGEVGLANILERIVDTLRLKEEVSRLFLKPVSKKEAPDYLDIVENPMDLSTIRDKVRKIEYRNREQFRHDVWQIKYNAHLYNDGRNPGIPPLADQLLEICDYLLDDYEDQLKEAEKGIDPND

Source: PMC4949998
